# Laboratory results from the supplement of paper PMC8728848.
# This is one part of the list.
# Assays:
# Test in all cases: glycan array binding signal (z-score within array); higher = stronger binding
# Settings in all cases: glycan notation: IUPAC condensed, linker removed
# [1] = target: Neu5Gc(a2-8)Neu5Gc(a2-3)Gal(b1-4)GlcNAc(b1-3)Gal(b1-4)GlcNAc
# Outline: (§1)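 Glycan array data were curated from 3228 arrays in the Consortium for Functional Glycomics database and kept only where the protein sequence was available. Glycan names were converted to IUPAC-condensed notation, and columns mapping to the same glycan were averaged. The binding signal is a within-array Z-score, averaged across arrays of the same protein sequence at different concentrations or buffers and across linkers. Negative Z-scores can be read as non-binding.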
# [2] = target: Neu5Gc(a2-8)Neu5Gc(a2-6)Gal(b1-4)GlcNAc
# Outline: as §1
# [3] = target: Neu5Gc(b2-6)Gal(b1-4)GlcNAc
# Outline: as §1
binder,measurement,setting,value
"AT5G24760(45) (Arabidopsis thaliana), Q8LEB2 (protein) MSASSSSFEQPQVITCNAAVAWRAGEPLVMEEVEVSPPQPLEIRIKVVCTSLCRSDLSAWESQSLLPRIFGHEAAGIVESIGEGVTEFEKGDHVLAVFTGECGSCRHCISGKSNMCQVLGMERKGLMHSDQKTRFSIKGKPVYHYCAVSSFSEYTVVHSGCAVKVDPLAPLHKICLLSCGVAAGLGAAWNVADVQKGSSVVIFGLGTVGLSVAQGAKLRGAAQILGVDINPAKAEQAKTFGVTDFINSNDLSEPIPQVIKRMTGGGADFSFECVGDTGIATTALQSCSDGWGMTVTLGVPKAKPEVSAHYGLFLSGKSLKGTLFGGWKPKSDLPSLIDKYMNKEIMIDEFITHNLSFDEINKAFVLMREGKCLRCVLHMPK",glycan array binding signal (z-score),[1],-0.497
same,glycan array binding signal (z-score),[2],-1.16
same,glycan array binding signal (z-score),[3],1.15
